Source: patent publication EP0004516A2, “Pharmaceutical compositions active on the gastro-intestinal motricity” (SCIENCE UNION ET Cie SOCIETE FRANCAISE DE RECHERCHE MEDICALE, priority 1978, dated 1979)

Tested on: médiateurs chimiques cérébraux
Conditions: in vivo

SMILES: CN1c2ccccc2C(NCCCCCCC(=O)O)c2ccc(Cl)cc2S1(=O)=O (racemic) [principe actif, acide 7-[(3-chloro 6-méthyl 5,5-dioxo 6,11-dihydrodibenzo (c,f)thiazepin 1,2-11-yl)amino] heptanoique]
- métabolisme de la dopamine: accélération
- sérotonine: baisse
- taux d'acétylcholine cérébrale: augmentation
